This note sets out measurements from PubChem BioAssay AID330 (DTP/NCI, 2004).

The test system of the experiment is P388 leukemia ip, CD2F1 mice, survival T/C. Kind of experiment: NCI In Vivo Anticancer Drug Screen. Data for tumor model P388 Leukemia (intraperitoneal) in CD2F1 (CDF1) mice. To be noted: T/C endpoint: median survival time, higher T/C = longer survival.
Where [1] appears, read: dose: 200.0 mg/kg/injection, schedule: Q01DX005 (ip), vehicle: Klucel (hydroxypropylcellulose) (HPC).
The mark [2] stands for this setting: dose: 400.0 mg/kg/injection, schedule: Q04DX002 (ip), vehicle: saline.
Where [3] appears, read: dose: 240.0 mg/kg/injection, schedule: Q01DX005 (ip), vehicle: saline with Tween-80.
[4] abbreviates: dose: 100.0 mg/kg/injection, schedule: Q01DX009 (ip), vehicle: saline.
Setting [5] is: dose: 100.0 mg/kg/injection, schedule: Q01DX005 (ip), vehicle: Klucel (hydroxypropylcellulose) (HPC).
Setting [6] is: dose: 200.0 mg/kg/injection, schedule: Q01DX001 (ip), vehicle: saline with Tween-80.
[7] abbreviates: dose: 400.0 mg/kg/injection, schedule: Q01DX001 (ip), vehicle: saline with Tween-80.
The mark [8] stands for this setting: dose: 50.0 mg/kg/injection, schedule: Q01DX009 (ip), vehicle: Klucel (hydroxypropylcellulose) (HPC).
Setting [9] is: dose: 100.0 mg/kg/injection, schedule: Q01DX009 (ip), vehicle: Klucel (hydroxypropylcellulose) (HPC).
Setting [10] is: dose: 200.0 mg/kg/injection, schedule: Q01DX009 (ip), vehicle: Klucel (hydroxypropylcellulose) (HPC).
Where [11] appears, read: dose: 50.0 mg/kg/injection, schedule: Q01DX009 (ip), vehicle: saline with Tween-80.
Setting [12] is: dose: 100.0 mg/kg/injection, schedule: Q01DX009 (ip), vehicle: saline with Tween-80.
[13] abbreviates: dose: 200.0 mg/kg/injection, schedule: Q01DX009 (ip), vehicle: saline with Tween-80.

The list does not hold the whole screen: it is rich in T/C values a quarter to a half above the control, in often repeated tests (any T/C) and in doses without a T/C. Other doses and runs of a compound stand elsewhere. T/C gives the treated animals as a percentage of the vehicle group. Some entries give survivors of the animals treated and no T/C: the source files T/C as zero there, which appears to mark a toxic dose or a test without result, not a measured value. Some survivor counts are full or nearly so, which does not show that the dose was tolerated: the source hardly ever lists a survival T/C far under the control, and the zero likely stands for such cases as well. Survivors were counted at the toxicity check, usually on the fifth day, unless a day is given; later deaths do not show. Schedules are NCI's codes, taken here to give the interval after Q, in days (D) or hours (H), and the number of doses after X. Counts like (3×) stand for listed records that agree. Some entries hold several experiments; the results are listed from low to high. For survival time, the PubChem record calls one and a half times the control and up active, and a quarter to a half above the control has no call in these data; cut-offs in other NCI protocols can differ.

On to `CCCNc1nc(C)nc2[nH]cc(C)c12`, for which the survivor count under setting [1] is recorded as 0 of 6.

As for `C(=C\c1ccccc1)/C[P+](c1ccccc1)(c1ccccc1)c1ccccc1`, the survivor count is listed as 4 of 6 (dose: 5.0 mg/kg/injection, schedule: Q01DX009 (ip), vehicle: saline with Tween-80); 4 of 6 (dose: 10.0 mg/kg/injection, schedule: Q01DX009 (ip), vehicle: saline with Tween-80); 4 of 6 (dose: 20.0 mg/kg/injection, schedule: Q01DX009 (ip), vehicle: saline with Tween-80).

`CCN(CC)CCCNc1nnnc2ccccc12`: under setting [2], the survivor count is 1 of 6.

In the case of `FC(F)(F)c1ccc2c(c1)N=C(NNC1=Nc3cc(C(F)(F)F)ccc3SC1)CS2`, the survivor count runs as follows: (dose: 60.0 mg/kg/injection, schedule: Q01DX005 (ip), vehicle: saline with Tween-80) 6 of 6 (2×); (dose: 120.0 mg/kg/injection, schedule: Q01DX005 (ip), vehicle: saline with Tween-80) 6 of 6; under setting [3], 6 of 6.

For the compound `COc1cc(C)nc2ccc(Cc3ccc4nc(C)cc(OC)c4c3)cc12`, the survivor count (dose: 100.0 mg/kg/injection, schedule: Q04DX003 (ip), vehicle: saline with Tween-80) was 0 of 6 and 1 of 6; the survivor count (dose: 200.0 mg/kg/injection, schedule: Q04DX003 (ip), vehicle: saline with Tween-80) is given as 0 of 6; the survivor count (dose: 400.0 mg/kg/injection, schedule: Q04DX003 (ip), vehicle: saline with Tween-80) is reported as 0 of 6.

As to `CN(C)N=Nc1cccc(Cl)c1`, the T/C (dose: 100.0 mg/kg/injection, schedule: Q01DX009 (ip), vehicle: saline + alcohol) is 129 % of control. Further, the survivor count (dose: 200.0 mg/kg/injection, schedule: Q01DX009 (ip), vehicle: saline + alcohol) is given as 0 of 6.

For the compound `CC(C)[C@](O)(C(=O)OCC1CCN2CC[C@@H](O)C12)[C@H](C)O` (stereo partly drawn), the survivor count runs as follows: (dose: 325.0 mg/kg/injection, schedule: Q01DX009 (ip), vehicle: saline) 0 of 6; (dose: 650.0 mg/kg/injection, schedule: Q01DX009 (ip), vehicle: saline) 0 of 6; (dose: 1300.0 mg/kg/injection, schedule: Q01DX009 (ip), vehicle: saline) 0 of 6.

With `COc1ccc(Cl)cc1Cn1ccnc1`, the survivor count under setting [3] is on record as 0 of 6.

Regarding `CC[N+](CC)(CC)CC(=O)c1ccc(Br)cc1`, under setting [4], the survivor count is 2 of 6.

Take `COC(=O)C1=C2Nc3ccccc3C23CCN2C(O)C4(CC5CC67CCOC6CCN6CCC8(c9cccc(OC)c9N(C4)C58O)C67)C4OCCC4(C1)C23` (stereo not drawn): the survivor count is given as 5 of 5 (dose: 50.0 mg/kg/injection, schedule: Q01DX005 (ip), vehicle: Klucel (hydroxypropylcellulose) (HPC)); 5 of 5 under setting [5]; 5 of 5 under setting [1].

Take `CC(C)C1=CC23CCC4C(C)(C(N)=O)CCCC4(C)C2CC1C1C(=O)OC(=O)C13` (stereo not drawn): the survivor count is, setting by setting: under setting [6], 2 of 6; under setting [7], 0 of 6.

Consider `c1ccc(-c2ccccc2C2=NC2)c(C2=NC2)c1`, for which the survivor count is reported as 5 of 6 (dose: 200.0 mg/kg/injection, schedule: Q04DX002 (ip), vehicle: saline with Tween-80) and 0 of 6 (dose: 400.0 mg/kg/injection, schedule: Q04DX002 (ip), vehicle: saline with Tween-80).

Turning to `Cc1cc(=O)oc2c3c4c(cc12)CCCN4CCC3`, the survivor count (dose: 400.0 mg/kg/injection, schedule: Q04DX003 (ip), vehicle: Klucel (hydroxypropylcellulose) (HPC)) is reported as 4 of 6.

As to `CC(=O)OC(C(=O)CBr)C(OC(C)=O)C(OC(C)=O)C(=O)CBr` (stereo not drawn), the survivor count under setting [8] is 0 of 6 and 5 of 6; the survivor count under setting [9] was 0 of 6; the survivor count under setting [10] is recorded as 0 of 6.

Turning to `c1ccc(CCC(Cc2cccnc2)c2ccccn2)nc1` (stereo not drawn), under setting [2], the survivor count is recorded as 1 of 6.

In the case of `COC(=O)C(CCC1CCCCN1)(c1ccccc1)c1ccccc1` (stereo not drawn), under “dose: 50.0 mg/kg/injection, schedule: Q04DX003 (ip), vehicle: saline with Tween-80”, the T/C is 130 % of control. Besides, for the setting “dose: 150.0 mg/kg/injection, schedule: Q04DX003 (ip), vehicle: saline with Tween-80”, the survivor count is 5 of 6.

Take `CCNCC1COc2cccc(OCC)c2O1` (stereo not drawn): the survivor count (dose: 200.0 mg/kg/injection, schedule: Q04DX002 (ip), vehicle: saline) was 2 of 6 and the survivor count under setting [2] is 0 of 6.

As to `Cc1ccc(NC(=S)N2CCCC2)cc1C`, the survivor count under setting [9] was 6 of 6.

Turning to `CNC(=O)OC1CC2CCCCC2C([N+](C)(C)C)C1` (stereo not drawn), the survivor count was 0 of 6 under setting [4] and 0 of 6 (dose: 200.0 mg/kg/injection, schedule: Q01DX009 (ip), vehicle: saline).

As for `CCOC(=O)c1cnc(NCCCCCCNc2ncc(C(=O)OCC)c(=O)[nH]2)[nH]c1=O`, the survivor count under setting [1] is given as 6 of 6.

Take `CN(C)CCO[Si](C)(C)[CH2][Sn]([CH3])([CH3])[CH3]`: under “dose: 240.0 mg/kg/injection, schedule: Q01DX005 (ip), vehicle: saline”, the survivor count is 0 of 6.

`COC(=O)C(O)(/C(=N\O)c1ccccc1)c1ccccc1` (stereo not drawn): under setting [3], the survivor count was 6 of 6.

As for `COc1ccc2nc3cc(Cl)ccc3c(NC(C)CCCN(C)C)c2n1` (stereo not drawn), the survivor count (dose: 200.0 mg/kg/injection, schedule: Q01DX005 (ip), vehicle: saline) was 0 of 6.

For the compound `CCCC/C=C/[Se]c1ccccc1`, the T/C under setting [11] is 135 % of control and the T/C under setting [12] was 129 % of control. For the same compound, under setting [13], the survivor count was 2 of 6 and 4 of 6.

Consider `COc1cc2c(cc1OC)CN1CSc3cc(OC)c(OC)cc3C1C2` (stereo not drawn), for which the survivor count under setting [7] is listed as 6 of 6.

In the case of `CSc1nc(=O)[nH]nc1SCc1ccccc1`, under “dose: 400.0 mg/kg/injection, schedule: Q01DX009 (ip), vehicle: Klucel (hydroxypropylcellulose) (HPC)”, the T/C is 133 and 138 % of control.

Take `[Cu+2].[NH-]CC1CCCC[N-]1.[NH-]CC1CCCC[N-]1.[O-][Cl+3]([O-])([O-])O` (stereo not drawn): the survivor count is, setting by setting: (dose: 25.0 mg/kg/injection, schedule: Q01DX009 (ip), vehicle: saline with Tween-80) 1 of 6; under setting [11], 0 of 6; under setting [12], 0 of 6; under setting [13], 0 of 6.

As to `C[CH2][Ge]([CH2]C)[CH2]/C(C)=C(/C)[CH2][Ge]([CH2]C)[CH2]C`, the survivor count under setting [13] was 6 of 6.

`CC1(CN2CCCC2)CCC(NC(=O)C(c2ccccc2)c2ccccc2)C(C)(C)O1` (stereo not drawn): the survivor count (dose: 100.0 mg/kg/injection, schedule: Q01DX001 (ip), vehicle: saline with Tween-80) is recorded as 3 of 6 and the survivor count under setting [6] is recorded as 0 of 6.

For the compound `COc1cc(C=Nc2cc(Cl)c(Cl)c(Cl)c2)ccc1N(CCCl)CCCl`, the T/C (dose: 1.1 mg/kg/injection, schedule: Q01DX009 (ip), vehicle: Klucel (hydroxypropylcellulose) (HPC)) is 135 % of control.

Regarding `CCO/C(C)=N\P(=O)(Oc1ccccc1)Oc1ccccc1`, where the note is “dose: 200.0 mg/kg/injection, schedule: Q01DX009 (ip), vehicle: distilled water + Tween-80”, the survivor count is reported as 5 of 6.

Regarding `CC(=O)O.CC(=O)O.[S-]CCN1CCOCC1.[Zn+2]`, the survivor count by setting is: under setting [8], 0 of 6 and 2 of 6; under setting [9], 0 of 6; under setting [10], 0 of 6.

For `Fc1cccc2c(C#Cc3ccccc3)c3ccccc3c(C#Cc3ccccc3)c12`, the survivor count (dose: 12.5 mg/kg/injection, schedule: Q01DX005 (ip), vehicle: saline with Tween-80) was 5 of 5 and the survivor count (dose: 50.0 mg/kg/injection, schedule: Q01DX005 (ip), vehicle: saline with Tween-80) is 5 of 5 (2×).

For the compound `C=C1CCN(c2ccc(F)cc2)C1=O`, the T/C (dose: 16.0 mg/kg/injection, schedule: Q01DX009 (ip), vehicle: saline + alcohol) is 125 % of control.

Take `CCC1C2Cc3ccc(O)cc3C1(C)CCN2C` (stereo not drawn): the survivor count is, setting by setting: under setting [5], 3 of 6; under setting [1], 1 of 6.
